{
  "sequences": {"note": "Amino acid sequences for entries named in this document (tags omitted).", "UniProt Q07817, whole entry": "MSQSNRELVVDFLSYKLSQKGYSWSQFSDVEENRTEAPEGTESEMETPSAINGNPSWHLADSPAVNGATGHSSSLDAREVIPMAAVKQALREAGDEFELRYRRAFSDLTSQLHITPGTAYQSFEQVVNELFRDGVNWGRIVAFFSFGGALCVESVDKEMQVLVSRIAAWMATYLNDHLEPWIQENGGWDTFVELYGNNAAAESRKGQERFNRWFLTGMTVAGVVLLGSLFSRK"},
  "source": "patent US20100021989A1",
  "about": "“COMPOSITIONS AND METHODS OF CONTROLLING AND ADMINISTERING REDOX SPECIFIC FORMS OF DRUGS, FOODS AND DIETARY SUPPLEMENTS” (priority 2008, published 2010)",
  "target": "Bcl-xL (Homo sapiens, UniProt Q07817)",
  "assay": "Bcl-xL fluorescence polarization displacement assay with FITC-Bad peptide",
  "assay_type": "binding",
  "settings": "same assay, not oxidized",
  "note": "At least one structure is not confirmed: it was looked up by name or label, or the drawing left a doubt.",
  "data": [
    {"smiles": "Cc1cc2c(C(C)C)c(O)c(O)c(C=O)c2c(O)c1-c1c(C)cc2c(C(C)C)c(O)c(O)c(C=O)c2c1O", "note": "[Gossypol]", "values": [
      {"measurement": "Usual activity in the Bcl-xL assay relative to EGCG", "value": "several times less active than EGCG"}
    ]}
  ]
}
